The test addresses T1, mouse TBX18 protein fused to a N-terminal triple FLAG tag followed by a biotinylation signal peptide (mouse) (UniProt Q9EPZ6).
T1 sequence (chain, biotinylated on the biotinylation signal peptide by co-expressed BirA): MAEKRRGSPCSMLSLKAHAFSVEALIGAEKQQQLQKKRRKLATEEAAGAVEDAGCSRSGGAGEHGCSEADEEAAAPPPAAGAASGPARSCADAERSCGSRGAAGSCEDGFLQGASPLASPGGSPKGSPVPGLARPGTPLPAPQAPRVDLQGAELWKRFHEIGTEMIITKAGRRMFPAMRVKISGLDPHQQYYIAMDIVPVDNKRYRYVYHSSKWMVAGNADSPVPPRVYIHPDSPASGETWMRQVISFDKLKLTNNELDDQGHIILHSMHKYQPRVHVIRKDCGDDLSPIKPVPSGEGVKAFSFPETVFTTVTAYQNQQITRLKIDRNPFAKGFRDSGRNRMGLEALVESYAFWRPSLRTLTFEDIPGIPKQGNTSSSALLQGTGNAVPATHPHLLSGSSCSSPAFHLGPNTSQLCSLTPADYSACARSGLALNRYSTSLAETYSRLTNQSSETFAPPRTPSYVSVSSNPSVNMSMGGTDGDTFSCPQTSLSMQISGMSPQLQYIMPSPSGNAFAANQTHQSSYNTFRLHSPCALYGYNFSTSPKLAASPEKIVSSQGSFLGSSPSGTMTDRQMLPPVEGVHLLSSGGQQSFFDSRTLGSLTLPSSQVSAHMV
Put plainly: affinity purification with mass spectrometry; tandem affinity purification of 3xFLAG-BioTag-TBX18 from nuclear extracts of transfected 293 cells (anti-FLAG M2 on Protein A agarose, 3xFLAG peptide elution, then Strep-Tactin Superflow), SDS-PAGE, LC-MS; three independent experiments against a mock control without exogenous TBX18.

These are yes or no findings as the source states them, for the method shown. In cells and extracts the contact can be indirect. Here binding means that the protein was enriched with, or labelled near, the bait; the list need not be complete. Tags and fused reporters may be left off the sequences shown.

B1: NCOA5 (protein, UniProt Q9HCD5 1-579)
chain: MNTAPSRPSPTRRDPYGFGDSRDSRRDRSPIRGSPRREPRDGRNGRDARDSRDIRDPRDLRDHRHSRDLRDHRDSRSVRDVRDVRDLRDFRDLRDSRDFRDQRDPMYDRYRDMRDSRDPMYRREGSYDRYLRMDDYCRRKDDSYFDRYRDSFDGRGPPGPESQSRAKERLKREERRREELYRQYFEEIQRRFDAERPVDCSVIVVNKQTKDYAESVGRKVRDLGMVVDLIFLNTEVSLSQALEDVSRGGSPFAIVITQQHQIHRSCTVNIMFGTPQEHRNMPQADAMVLVARNYERYKNECREKEREEIARQAAKMADEAILQERERGGPEEGVRGGHPPAIQSLINLLADNRYLTAEETDKIINYLRERKERLMRSSTDSLPGPISRQPLGATSGASLKTQPSSQPLQSGQVLPSATPTPSAPPTSQQELQAKILSLFNSGTVTANSSSASPSVAAGNTPNQNFSTAANSQPQQRSQASGNQPPSILGQGGSAQNMGPRPGAPSQGLFGQPSSRLAPASNMTSQRPVSSTGINFDNPSVQKALDTLIQSGPALSHLVSQTTAQMGQPQAPMGSYQRHY
As for B1, the binding result is “binds”.

B2: GAR1 (protein, UniProt Q9NY12 1-217)
chain: MSFRGGGRGGFNRGGGGGGFNRGGSSNHFRGGGGGGGGGNFRGGGRGGFGRGGGRGGFNKGQDQGPPERVVLLGEFLHPCEDDIVCKCTTDENKVPYFNAPVYLENKEQIGKVDEIFGQLRDFYFSVKLSENMKASSFKKLQKFYIDPYKLLPLQRFLPRPPGEKGPPRGGGRGGRGGGRGGGGRGGGRGGGFRGGRGGGGGGFRGGRGGGFRGRGH
With B2, the binding entry is “binds”.

B3: SBNO2 (protein, UniProt Q9Y2G9 1-1366)
chain: MLAVGPAMDRDYPQHEPPPAGSLLYSPPPLQSAMLHCPYWNTFSLPPYPAFSSDSRPFMSSASFLGSQPCPDTSYAPVATASSLPPKTCDFAQDSSYFEDFSNISIFSSSVDSLSDIVDTPDFLPADSLNQVSTIWDDNPAPSTHDKLFQLSRPFAGFEDFLPSHSTPLLVSYQEQSVQSQPEEEDEAEEEEAEELGHTETYADYVPSKSKIGKQHPDRVVETSTLSSVPPPDITYTLALPSDSGALSALQLEAITYACQQHEVLLPSGQRAGFLIGDGAGVGKGRTVAGVILENHLRGRKKALWFSVSNDLKYDAERDLRDIEATGIAVHALSKIKYGDTTTSEGVLFATYSALIGESQAGGQHRTRLRQILDWCGEAFEGVIVFDECHKAKNAGSTKMGKAVLDLQNKLPLARVVYASATGASEPRNMIYMSRLGIWGEGTPFRNFEEFLHAIEKRGVGAMEIVAMDMKVSGMYIARQLSFSGVTFRIEEIPLAPAFECVYNRAALLWAEALNVFQQAADWIGLESRKSLWGQFWSAHQRFFKYLCIAAKVRRLVELAREELARDKCVVIGLQSTGEARTREVLGENDGHLNCFVSAAEGVFLSLIQKHFPSTKRKRDRGAGSKRKRRPRGRGAKAPRLACETAGVIRISDDSSTESDPGLDSDFNSSPESLVDDDVVIVDAVGLPSDDRGPLCLLQRDPHGPGVLERVERLKQDLLDKVRRLGRELPVNTLDELIDQLGGPQRVAEMTGRKGRVVSRPDGTVAFESRAEQGLSIDHVNLREKQRFMSGEKLVAIISEASSSGVSLQADRRVQNQRRRVHMTLELPWSADRAIQQFGRTHRSNQVSAPEYVFLISELAGERRFASIVAKRLESLGALTHGDRRATESRDLSKYNFENKYGTRALHCVLTTILSQTENKVPVPQGYPGGVPTFFRDMKQGLLSVGIGGRESRNGCLDVEKDCSITKFLNRILGLEVHKQNALFQYFSDTFDHLIEMDKREGKYDMGILDLAPGIEEIYEESQQVFLAPGHPQDGQVVFYKISVDRGLKWEDAFAKSLALTGPYDGFYLSYKVRGNKPSCLLAEQNRGQFFTVYKPNIGRQSQLEALDSLRRKFHRVTAEEAKEPWESGYALSLTHCSHSAWNRHCRLAQEGKDCLQGLRLRHHYMLCGALLRVWGRIAAVMADVSSSSYLQIVRLKTKDRKKQVGIKIPEGCVRRVLQELRLMDADVKRRQAPALGCPAPPAPRPLALPCGPGEVLDLTYSPPAEAFPPPPHFSFPAPLSLDAGPGVVPLGTPDAQADPAALAHQGCDINFKEVLEDMLRSLHAGPPSEGALGEGAGAGGAAGGGPERQSVIQFSPPFPGAQAPL
In the case of B3, the binding entry is on record as “binds”.

For the origin of these results see paper PMC6071992.
